Measurements reported in PubChem BioAssay AID504804 (Drosophila RNAi Screening Center, 2011).
In all, the deposit lists about 19,000 reagents; below is an unselected part of those that have a named target and a result. Over the whole deposit, 47 (0.25%) were called active. 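Signals are raw, not normalised; exact z-scores behind calls not deposited; actives needed confirmation, so some wells reaching 2 SD are inactive.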 The numbers tell different reagents against one gene apart. Reagent sequences are not shown.

- Assay: 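Knock-downs shielding fly cells from apoptosis caused by DNA damage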 (primary screen)
- System: Drosophila Kc cells
- Reagent: long dsRNA against Drosophila genes, 0.5 µg dsRNA per well
- Time to read-out: 96 h (48 h knock-down, then 48 h drug)
- Conditions: doxorubicin 5 µg/ml for 48 h, added 48 h after dsRNA
- Measured: 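Luminescent ATP counts per replicate, not normalised, reflecting viable cells after 48 h dsRNA knock-down followed by 48 h of 5 µg/ml doxorubicin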
- Reading the numbers: raw ATP luminescence: higher = more viable cells, protection from doxorubicin
- Active means: 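Active when both duplicate wells lie at least 2 SD above the plate mean and protection is confirmed by rescreening and independent dsRNAs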

Depletion of Not11 (CCR4-NOT transcription complex subunit 11) came out at: raw ATP luminescence, replicate 1 = 53427; raw ATP luminescence, replicate 2 = 53200; inactive.
After knock-down of Abca3 (ATP binding cassette subfamily A member 3) the results were raw ATP luminescence, replicate 1 = 3.34e5; raw ATP luminescence, replicate 2 = 2.98e5; inactive.
With knock-down of SCAR, the screen gave raw ATP luminescence, replicate 1 = 46340; raw ATP luminescence, replicate 2 = 89977; inactive.
After knock-down of CG30338, the record shows raw ATP luminescence, replicate 1 = 93307; raw ATP luminescence, replicate 2 = 1.14e5; inactive.
Against CG6225 the deposit lists raw ATP luminescence, replicate 1 = 55077; raw ATP luminescence, replicate 2 = 49297; inactive.
With knock-down of CG12995, the screen gave raw ATP luminescence, replicate 1 = 3.45e5; raw ATP luminescence, replicate 2 = 2.84e5; inactive.
After knock-down of ND-19 (NADH dehydrogenase (ubiquinone) 19 kDa subunit) the results were raw ATP luminescence, replicate 1 = 40523; raw ATP luminescence, replicate 2 = 56387; inactive.
CG34247 showed raw ATP luminescence, replicate 1 = 65937; raw ATP luminescence, replicate 2 = 59063; inactive.
Silencing of Rbp6 (RNA-binding protein 6) #1 came out at: raw ATP luminescence, replicate 1 = 70237; raw ATP luminescence, replicate 2 = 79640; inactive.
Knock-down of Rbp6 (RNA-binding protein 6) #2 gave: raw ATP luminescence, replicate 1 = 85057; raw ATP luminescence, replicate 2 = 93683; inactive.
With knock-down of Rbp6 (RNA-binding protein 6) #3 the results were raw ATP luminescence, replicate 1 = 53697; raw ATP luminescence, replicate 2 = 34350; inactive.
Against Rbp6 (RNA-binding protein 6) #4 the deposit lists raw ATP luminescence, replicate 1 = 55550; raw ATP luminescence, replicate 2 = 28617; inactive.
With knock-down of Rbp6 (RNA-binding protein 6) #5 the results were raw ATP luminescence, replicate 1 = 46030; raw ATP luminescence, replicate 2 = 34033; inactive.
